System: chimeric human-rat TF constructs expressed on HEK293 cells
Assay: Epitope binning, chimeric TF construct mapping (live cell staining assay)
Format: binding
Conditions: assignment based on unbound chimeric constructs
Description: To establish binding of the anti-human TF antibodies to the various TF constructs, HEK293 cells were transfected with a DNA plasmid that co-expresses the TF construct and a green fluorescent protein marker. For a subset of the antibodies, an antibody titration (a 12-point 1:3 dilution series starting at 250 nM) was evaluated on select TF constructs (See international PCT application PCT/US2019/012427 and U.S. utility application Ser. No. 16/959,652, incorporated herein by reference in their entirety). […] Two days after transfection, cells were collected from the tissue culture plate, stained with 15 μg/ml of the indicated anti-TF antibody, washed, stained with anti-human IgG-Fc Alexa Fluor 647 polyclonal antibody, washed, and stained with the viability dye 4′,6-Diamidino-2-Phenylindole, Dihydrochloride. Upon acquisition of 80,000 live events on a flow cytometer, live cells marked with the fluorescent marker were analyzed for the degree of staining by the anti-TF antibody. […] As used herein, the term “live cell staining assay” refers to the antibody binding assay used in this example.
When “Percentage antibody binding to TF construct relative to hTF” in Tables 51 and 52 was less than 50%, the antibody was considered a non-binder (0) in Tables 53 and 54.

Substance	Epitope Bin
5G9: previously described TF-specific antibody	4
TF-011	1

Reference: patent US20240166765A1, “INFLAMMATORY DISEASE TREATMENT USING ANTI-TISSUE FACTOR ANTIBODIES” (Iconic Therapeutics LLC, priority 2020, published 2024)
